Experimental data from the supplement of paper PMC3334620.
The full ranking holds about 33,000 sequences; the median of “E-score (-0.5 to 0.5)” is about -0.015, and the highest 2% start at about 0.3. This is one part of the list.

What follows are sequences tested against T1, Abf1 (UniProt P14164) (assay: PBM E-score (8-mer binding enrichment) (E-score (-0.5 to 0.5)); higher = stronger / more preferred TF binding). Settings: protein concentration: 200 nM; construct: GST-full length.
T1 sequence: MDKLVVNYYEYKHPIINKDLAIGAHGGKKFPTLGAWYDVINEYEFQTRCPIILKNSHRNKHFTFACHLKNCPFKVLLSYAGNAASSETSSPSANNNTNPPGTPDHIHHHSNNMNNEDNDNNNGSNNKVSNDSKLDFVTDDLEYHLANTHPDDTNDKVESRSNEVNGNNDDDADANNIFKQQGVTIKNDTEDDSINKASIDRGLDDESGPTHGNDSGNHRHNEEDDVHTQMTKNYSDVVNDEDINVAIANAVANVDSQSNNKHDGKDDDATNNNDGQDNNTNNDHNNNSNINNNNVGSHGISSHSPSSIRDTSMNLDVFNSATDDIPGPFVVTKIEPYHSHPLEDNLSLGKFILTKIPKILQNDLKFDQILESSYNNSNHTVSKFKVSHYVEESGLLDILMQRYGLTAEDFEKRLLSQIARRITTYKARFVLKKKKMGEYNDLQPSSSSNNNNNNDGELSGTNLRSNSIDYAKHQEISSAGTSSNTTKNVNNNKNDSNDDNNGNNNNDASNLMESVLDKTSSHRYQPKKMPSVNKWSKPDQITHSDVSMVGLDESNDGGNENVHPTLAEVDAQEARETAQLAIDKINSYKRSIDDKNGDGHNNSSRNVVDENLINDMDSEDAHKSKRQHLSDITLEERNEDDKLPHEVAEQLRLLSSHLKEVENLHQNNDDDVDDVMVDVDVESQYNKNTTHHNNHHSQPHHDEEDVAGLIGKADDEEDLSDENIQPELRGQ
Outline: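 GST-tagged yeast TFs (full-length or DNA-binding domain) were made by PURExpress in vitro transcription/translation and applied at about 100-200 nM to universal all-10-mer Agilent arrays. The arrays were made double-stranded by primer extension, on fresh or once-stripped slides. Bound protein was detected with fluorescent anti-GST, and scans were normalised with masliner. Each ungapped eight-base word, pooled with its reverse complement, received an E-score (modified Wilcoxon-Mann-Whitney statistic) from the Universal PBM Analysis Suite.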

| Sequence | PBM E-score |
| --- | --- |
| CTGGTCAC | 0.0991 |
| CAGGCTAC | 0.0501 |
| CGCATATC | 0.239 |
| GCCCCAGA | -0.182 |
| CATGATCG | 0.0839 |
| CCACACCC | -0.227 |
| AAGTCTAC | -0.0157 |
| CCGCACTC | -0.0386 |
| ATAAATTC | 0.0233 |
| AACAAGGT | -0.0738 |
| AAGCATAT | 0.103 |
| AACCTTCA | -0.176 |
| CAAAGCCC | -0.177 |
| AGGAGTTG | 0.106 |
| ACGTGGAC | 0.148 |
| CGGCTAGA | -0.191 |
| ACCGGACA | -0.178 |
| CCGAGAAG | -0.148 |
| CCGACAAA | -0.0368 |
| AGTTCACG | 0.205 |
| CCTGGCGC | -0.203 |
| CGCTTCGC | -0.0601 |
| AAGTTCAC | -0.039 |
| CAACTCCC | 0.0133 |
| ATAGTGTC | 0.15 |

| Sequence | PBM E-score |
| --- | --- |
| CGGTGAGC | 0.00518 |
| CCTGTCTA | -0.143 |
| AACCGAAC | -0.132 |
| CCGCTCGA | -0.0978 |
| CGCAAGTA | -0.0802 |
| TGTTATAA | 0.114 |
| GCGGAGAA | -0.133 |
| AATGGACA | 0.139 |
| ATTCACGG | 0.13 |
| AGCTAGTG | -0.15 |
| GTTAAGAA | 0.0526 |
| CCTCGTGA | 0.363 |
| CCCTGTAC | 0.00397 |
| AACCCAAT | 0.0745 |
| CAACCCAC | 0.039 |
| ATTTCTTG | 0.167 |
| ATCCATCC | 0.0564 |
| ACAAGGTC | -0.0142 |
| AAGTCCAT | 0.00815 |
| GACGCAAC | -0.0321 |
| CATCATGC | 0.128 |
| AAGCGGAA | -0.123 |
| GTAAGCCA | -0.0838 |
| GCACTTCA | -0.0964 |
| CCTCGAAC | -0.211 |

Fetched one by one from the entries so far, four records:

| Sequence | PBM E-score |
| --- | --- |
| AATGGACA | 0.139 |
| GTTAAGAA | 0.0526 |
| CCTCGTGA | 0.363 |
| ATCCATCC | 0.0564 |

(cont.)

| Sequence | PBM E-score |
| --- | --- |
| CTCTCGGA | 0.061 |
| CATCACCG | 0.137 |
| CGGATCTC | -0.0378 |
| CATATAAA | 0.202 |
| TCTGAAAA | -0.132 |
| ATGCAAAA | 0.113 |
| GAGCCACC | -0.254 |
| CCCATCCG | -0.257 |
| CATTATGC | 0.139 |
| GGGACACA | -0.0891 |
| CCCATATA | -0.0522 |
| AGTGAAAC | -0.0253 |
| GAGTTACA | 0.081 |
| CATATGAC | 0.107 |
| ATATTCTC | 0.169 |
| CAGCCTTA | -0.0785 |
| AAGTGGAA | -0.126 |
| CAATAATA | 0.076 |
| CCCAAACC | 0.088 |
| AACGGTGC | 0.228 |
| ACTGGGCC | -0.237 |
| CGAACCTC | 0.137 |
| AGCTGAAG | -0.229 |
| AGCACCGC | -0.0172 |
| ACCGCACC | -0.213 |

| Sequence | PBM E-score |
| --- | --- |
| AACCATAA | -0.125 |
| TAGAAGCA | -0.0239 |
| AGGTGTTG | -0.111 |
| TCATTCAA | 0.153 |
| GTGTCGGA | 0.0611 |
| GGAGTGAA | -0.0623 |
| GTACGCAA | 0.115 |
| GCAGTTTA | -0.0444 |
| CTGAGGGA | 0.00291 |
| AATCAAGG | 0.0183 |
| CTAGCAGA | 0.108 |
| CCCAAGTA | -0.16 |
| CCCGGCAC | -0.0816 |
| AGAGTCTA | -0.157 |
| CGCACACG | 0.146 |
| GGGACCTA | -0.0298 |
| GTCAAGAA | 0.141 |
| ATTGTGAC | 0.214 |
| ATTTAAAA | 0.14 |
| CACACGCC | 0.0223 |
| CTAATTCC | 0.0379 |
| AGGCGCAT | -0.0512 |
| AGTCACGG | 0.154 |
| CGCTTTGC | 0.056 |
| GTCTTCTA | -0.12 |

| Sequence | PBM E-score |
| --- | --- |
| CAAGCGCG | -0.138 |
| AGAAAGGG | -0.181 |
| GGCTAATA | 0.0305 |
| ATCGAGAA | 0.154 |
| AAGCAGTA | -0.245 |
| CACCTAAA | -0.0302 |
| CATGGTCA | 0.0681 |
| GCGTAGCC | -0.176 |
| ACAAGCTG | 0.00656 |
| CGAGATCC | -0.0372 |
| AGGAGGTG | -0.248 |
| CTGGCCGA | -0.294 |
| GTACTGAA | 0.0134 |
| ACAATGGC | -0.0674 |
| CGGATCCC | -0.126 |
| AGACTTGC | -0.0934 |
| CTGGCAGC | -0.226 |
| AGCATTTA | -0.143 |
| ACGCGTCC | -0.0434 |
| GACCCGAA | -0.362 |
| CCTAAGGC | -0.171 |
| GATAGGCC | -0.00902 |
| GATTACCC | 0.146 |
| CAAAATCG | 0.188 |
| ACGTCCCG | 0.0929 |

40 entries from above, comma-delimited:
Sequence,PBM E-score
CAGCCTTA,-0.0785
AAGTGGAA,-0.126
CAATAATA,0.076
CCCAAACC,0.088
AACGGTGC,0.228
ACTGGGCC,-0.237
CGAACCTC,0.137
AGCTGAAG,-0.229
AGCACCGC,-0.0172
ACCGCACC,-0.213
AACCATAA,-0.125
TAGAAGCA,-0.0239
AGGTGTTG,-0.111
TCATTCAA,0.153
GTGTCGGA,0.0611
GGAGTGAA,-0.0623
GTACGCAA,0.115
GCAGTTTA,-0.0444
CTGAGGGA,0.00291
AATCAAGG,0.0183
CTAGCAGA,0.108
CCCAAGTA,-0.16
CCCGGCAC,-0.0816
AGAGTCTA,-0.157
CGCACACG,0.146
GGGACCTA,-0.0298
GTCAAGAA,0.141
ATTGTGAC,0.214
ATTTAAAA,0.14
CACACGCC,0.0223
CTAATTCC,0.0379
AGGCGCAT,-0.0512
AGTCACGG,0.154
CGCTTTGC,0.056
GTCTTCTA,-0.12
CAAGCGCG,-0.138
AGAAAGGG,-0.181
GGCTAATA,0.0305
ATCGAGAA,0.154
AAGCAGTA,-0.245

More entries follow:

| Sequence | PBM E-score |
| --- | --- |
| ACCGCCAT | -0.126 |
| CTTCGCCA | -0.0613 |
| AAGCCCAC | -0.0363 |
| GCGAGACA | 0.00223 |
| CAATCATC | 0.12 |
| AGTTCTGG | -0.15 |
| CAATCATG | 0.0428 |
| ACCATGCA | 0.148 |
| GATTCGCA | -0.00486 |
| CTTTACAC | 0.17 |
| GCTGGCCC | -0.342 |
| AAGCGTCC | -0.114 |
| CAGCAGAG | -0.263 |
| AGATATGC | 0.123 |
| ACTTGTGC | -0.0722 |
| CAAAGAGA | -0.0578 |
| AAAAGTCA | 0.186 |
| CGCTAAAG | -0.0174 |
| AAGGTACA | -0.111 |
| AAATCCTC | -0.238 |
| ATAACTCC | 0.112 |
| TCGTTGAA | 0.289 |
| CTAGGTAC | 0.134 |
| ACCGAGCT | -0.198 |
| GGATGCCC | -0.0335 |

| Sequence | PBM E-score |
| --- | --- |
| CATATACA | 0.0274 |
| ATATTCCA | 0.16 |
| CATCCCAG | -0.00556 |
| ATGGTCAA | 0.203 |
| CATAGTGA | 0.202 |
| CGCAGACA | -0.104 |
| CTATTTTC | 0.0169 |
| ATGACGGC | 0.0817 |
| CGAGGAAA | -0.0178 |
| CTGCACCC | -0.316 |
| GCGCTGAC | -0.185 |
| CTGTATAC | 0.0574 |
| GTCAGTCA | 0.0751 |
| GTCACCTA | 0.154 |
| ACGATTGC | 0.223 |
| ACTTAATC | 0.056 |
| GGCATCAC | 0.0726 |
| GGTATCAC | 0.246 |
| AGCCTAGG | -0.302 |
| ACCTTAAA | 0.125 |
| AATTCGGT | 0.203 |
| AGGTTTTC | 0.0704 |
